In the assay the target is H3K9me3 peptide, …(me3)…-biotin. The assay is described as follows: affinity purification with mass spectrometry; H3 (aa 1-21) peptides unmodified or K9me3 immobilized on magnetic beads, incubated with HeLa S3 nuclear extract; SDS-PAGE, whole lanes digested, MS/MS; sets of the pulldowns subtracted; only the target purified.

No constants are given. Whether binding was seen depends on the method and setting. Binding seen in cells or lysates may run through a third protein. These calls come from enrichment with a bait or labelling near it, and not all partners need be listed.

B1: CDYL1, endogenous in HeLa S3 nuclear extract (protein, UniProt Q9Y232 1-598)
chain: MTFQASHRSAWGKSRKKNWQYEGPTQKLFLKRNNVSAPDGPSDPSISVSSEQSGAQQPPALQVERIVDKRKNKKGKTEYLVRWKGYDSEDDTWEPEQHLVNCEEYIHDFNRRHTEKQKESTLTRTNRTSPNNARKQISRSTNSNFSKTSPKALVIGKDHESKNSQLFAASQKFRKNTAPSLSSRKNMDLAKSGIKILVPKSPVKSRTAVDGFQSESPEKLDPVEQGQEDTVAPEVAAEKPVGALLGPGAERARMGSRPRIHPLVPQVPGPVTAAMATGLAVNGKGTSPFMDALTANGTTNIQTSVTGVTASKRKFIDDRRDQPFDKRLRFSVRQTESAYRYRDIVVRKQDGFTHILLSTKSSENNSLNPEVMREVQSALSTAAADDSKLVLLSAVGSVFCCGLDFIYFIRRLTDDRKRESTKMAEAIRNFVNTFIQFKKPIIVAVNGPAIGLGASILPLCDVVWANEKAWFQTPYTTFGQSPDGCSTVMFPKIMGGASANEMLLSGRKLTAQEACGKGLVSQVFWPGTFTQEVMVRIKELASCNPVVLEESKALVRCNMKMELEQANERECEVLKKIWGSAQGMDSMLKYLQRKIDEF
As to B1, the binding entry is given as “binds”.

The values above are taken from publication PMC3022755, “HP1 Recruits Activity-Dependent Neuroprotective Protein to H3K9me3 Marked Pericentromeric Heterochromatin for Silencing of Major Satellite Repeats” (PLoS ONE, 2011).
